Source: paper doi:10.1101/517789
These are yes or no findings as the source states them, for the method shown. Binding seen in cells or lysates may run through a third protein. Here binding means that the protein was enriched with, or labelled near, the bait; the list need not be complete. Sequences can lack the tags named with a protein.

The chains behind the UniProt entries cited, without tags or fusion partners.
UniProt Q9JHG7: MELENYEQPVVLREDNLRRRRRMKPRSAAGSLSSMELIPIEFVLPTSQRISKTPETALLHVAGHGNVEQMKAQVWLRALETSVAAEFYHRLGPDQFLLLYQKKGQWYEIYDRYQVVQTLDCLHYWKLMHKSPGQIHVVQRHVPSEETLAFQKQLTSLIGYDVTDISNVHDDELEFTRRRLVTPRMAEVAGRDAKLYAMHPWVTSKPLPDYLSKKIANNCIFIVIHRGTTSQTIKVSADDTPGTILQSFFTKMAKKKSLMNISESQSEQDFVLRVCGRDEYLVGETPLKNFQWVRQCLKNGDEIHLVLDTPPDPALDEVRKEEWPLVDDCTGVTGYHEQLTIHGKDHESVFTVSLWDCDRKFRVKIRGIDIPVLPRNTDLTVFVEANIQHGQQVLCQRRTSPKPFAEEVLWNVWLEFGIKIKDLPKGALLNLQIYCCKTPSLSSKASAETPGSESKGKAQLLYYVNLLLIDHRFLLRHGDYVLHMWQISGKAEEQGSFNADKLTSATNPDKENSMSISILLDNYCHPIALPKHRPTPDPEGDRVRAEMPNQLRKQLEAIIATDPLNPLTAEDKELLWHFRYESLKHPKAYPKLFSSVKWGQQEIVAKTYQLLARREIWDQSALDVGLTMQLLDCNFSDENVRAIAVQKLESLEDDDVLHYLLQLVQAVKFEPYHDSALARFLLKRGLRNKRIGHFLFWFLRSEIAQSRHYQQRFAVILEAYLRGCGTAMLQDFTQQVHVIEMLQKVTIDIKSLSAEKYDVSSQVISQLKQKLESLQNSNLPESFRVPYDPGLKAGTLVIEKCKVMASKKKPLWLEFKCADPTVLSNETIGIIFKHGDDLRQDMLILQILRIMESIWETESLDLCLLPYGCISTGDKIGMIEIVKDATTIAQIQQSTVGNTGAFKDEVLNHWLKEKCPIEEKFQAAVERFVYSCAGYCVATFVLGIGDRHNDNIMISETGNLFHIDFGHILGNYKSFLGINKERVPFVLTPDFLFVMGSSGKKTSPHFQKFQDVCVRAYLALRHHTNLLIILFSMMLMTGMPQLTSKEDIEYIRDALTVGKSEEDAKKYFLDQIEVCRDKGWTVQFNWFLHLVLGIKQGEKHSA
UniProt P49817: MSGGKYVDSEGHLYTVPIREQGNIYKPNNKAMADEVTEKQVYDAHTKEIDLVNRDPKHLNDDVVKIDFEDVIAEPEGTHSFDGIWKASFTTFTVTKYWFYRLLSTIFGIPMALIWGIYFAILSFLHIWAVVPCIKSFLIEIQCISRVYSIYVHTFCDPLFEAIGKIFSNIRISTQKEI
UniProt P11531: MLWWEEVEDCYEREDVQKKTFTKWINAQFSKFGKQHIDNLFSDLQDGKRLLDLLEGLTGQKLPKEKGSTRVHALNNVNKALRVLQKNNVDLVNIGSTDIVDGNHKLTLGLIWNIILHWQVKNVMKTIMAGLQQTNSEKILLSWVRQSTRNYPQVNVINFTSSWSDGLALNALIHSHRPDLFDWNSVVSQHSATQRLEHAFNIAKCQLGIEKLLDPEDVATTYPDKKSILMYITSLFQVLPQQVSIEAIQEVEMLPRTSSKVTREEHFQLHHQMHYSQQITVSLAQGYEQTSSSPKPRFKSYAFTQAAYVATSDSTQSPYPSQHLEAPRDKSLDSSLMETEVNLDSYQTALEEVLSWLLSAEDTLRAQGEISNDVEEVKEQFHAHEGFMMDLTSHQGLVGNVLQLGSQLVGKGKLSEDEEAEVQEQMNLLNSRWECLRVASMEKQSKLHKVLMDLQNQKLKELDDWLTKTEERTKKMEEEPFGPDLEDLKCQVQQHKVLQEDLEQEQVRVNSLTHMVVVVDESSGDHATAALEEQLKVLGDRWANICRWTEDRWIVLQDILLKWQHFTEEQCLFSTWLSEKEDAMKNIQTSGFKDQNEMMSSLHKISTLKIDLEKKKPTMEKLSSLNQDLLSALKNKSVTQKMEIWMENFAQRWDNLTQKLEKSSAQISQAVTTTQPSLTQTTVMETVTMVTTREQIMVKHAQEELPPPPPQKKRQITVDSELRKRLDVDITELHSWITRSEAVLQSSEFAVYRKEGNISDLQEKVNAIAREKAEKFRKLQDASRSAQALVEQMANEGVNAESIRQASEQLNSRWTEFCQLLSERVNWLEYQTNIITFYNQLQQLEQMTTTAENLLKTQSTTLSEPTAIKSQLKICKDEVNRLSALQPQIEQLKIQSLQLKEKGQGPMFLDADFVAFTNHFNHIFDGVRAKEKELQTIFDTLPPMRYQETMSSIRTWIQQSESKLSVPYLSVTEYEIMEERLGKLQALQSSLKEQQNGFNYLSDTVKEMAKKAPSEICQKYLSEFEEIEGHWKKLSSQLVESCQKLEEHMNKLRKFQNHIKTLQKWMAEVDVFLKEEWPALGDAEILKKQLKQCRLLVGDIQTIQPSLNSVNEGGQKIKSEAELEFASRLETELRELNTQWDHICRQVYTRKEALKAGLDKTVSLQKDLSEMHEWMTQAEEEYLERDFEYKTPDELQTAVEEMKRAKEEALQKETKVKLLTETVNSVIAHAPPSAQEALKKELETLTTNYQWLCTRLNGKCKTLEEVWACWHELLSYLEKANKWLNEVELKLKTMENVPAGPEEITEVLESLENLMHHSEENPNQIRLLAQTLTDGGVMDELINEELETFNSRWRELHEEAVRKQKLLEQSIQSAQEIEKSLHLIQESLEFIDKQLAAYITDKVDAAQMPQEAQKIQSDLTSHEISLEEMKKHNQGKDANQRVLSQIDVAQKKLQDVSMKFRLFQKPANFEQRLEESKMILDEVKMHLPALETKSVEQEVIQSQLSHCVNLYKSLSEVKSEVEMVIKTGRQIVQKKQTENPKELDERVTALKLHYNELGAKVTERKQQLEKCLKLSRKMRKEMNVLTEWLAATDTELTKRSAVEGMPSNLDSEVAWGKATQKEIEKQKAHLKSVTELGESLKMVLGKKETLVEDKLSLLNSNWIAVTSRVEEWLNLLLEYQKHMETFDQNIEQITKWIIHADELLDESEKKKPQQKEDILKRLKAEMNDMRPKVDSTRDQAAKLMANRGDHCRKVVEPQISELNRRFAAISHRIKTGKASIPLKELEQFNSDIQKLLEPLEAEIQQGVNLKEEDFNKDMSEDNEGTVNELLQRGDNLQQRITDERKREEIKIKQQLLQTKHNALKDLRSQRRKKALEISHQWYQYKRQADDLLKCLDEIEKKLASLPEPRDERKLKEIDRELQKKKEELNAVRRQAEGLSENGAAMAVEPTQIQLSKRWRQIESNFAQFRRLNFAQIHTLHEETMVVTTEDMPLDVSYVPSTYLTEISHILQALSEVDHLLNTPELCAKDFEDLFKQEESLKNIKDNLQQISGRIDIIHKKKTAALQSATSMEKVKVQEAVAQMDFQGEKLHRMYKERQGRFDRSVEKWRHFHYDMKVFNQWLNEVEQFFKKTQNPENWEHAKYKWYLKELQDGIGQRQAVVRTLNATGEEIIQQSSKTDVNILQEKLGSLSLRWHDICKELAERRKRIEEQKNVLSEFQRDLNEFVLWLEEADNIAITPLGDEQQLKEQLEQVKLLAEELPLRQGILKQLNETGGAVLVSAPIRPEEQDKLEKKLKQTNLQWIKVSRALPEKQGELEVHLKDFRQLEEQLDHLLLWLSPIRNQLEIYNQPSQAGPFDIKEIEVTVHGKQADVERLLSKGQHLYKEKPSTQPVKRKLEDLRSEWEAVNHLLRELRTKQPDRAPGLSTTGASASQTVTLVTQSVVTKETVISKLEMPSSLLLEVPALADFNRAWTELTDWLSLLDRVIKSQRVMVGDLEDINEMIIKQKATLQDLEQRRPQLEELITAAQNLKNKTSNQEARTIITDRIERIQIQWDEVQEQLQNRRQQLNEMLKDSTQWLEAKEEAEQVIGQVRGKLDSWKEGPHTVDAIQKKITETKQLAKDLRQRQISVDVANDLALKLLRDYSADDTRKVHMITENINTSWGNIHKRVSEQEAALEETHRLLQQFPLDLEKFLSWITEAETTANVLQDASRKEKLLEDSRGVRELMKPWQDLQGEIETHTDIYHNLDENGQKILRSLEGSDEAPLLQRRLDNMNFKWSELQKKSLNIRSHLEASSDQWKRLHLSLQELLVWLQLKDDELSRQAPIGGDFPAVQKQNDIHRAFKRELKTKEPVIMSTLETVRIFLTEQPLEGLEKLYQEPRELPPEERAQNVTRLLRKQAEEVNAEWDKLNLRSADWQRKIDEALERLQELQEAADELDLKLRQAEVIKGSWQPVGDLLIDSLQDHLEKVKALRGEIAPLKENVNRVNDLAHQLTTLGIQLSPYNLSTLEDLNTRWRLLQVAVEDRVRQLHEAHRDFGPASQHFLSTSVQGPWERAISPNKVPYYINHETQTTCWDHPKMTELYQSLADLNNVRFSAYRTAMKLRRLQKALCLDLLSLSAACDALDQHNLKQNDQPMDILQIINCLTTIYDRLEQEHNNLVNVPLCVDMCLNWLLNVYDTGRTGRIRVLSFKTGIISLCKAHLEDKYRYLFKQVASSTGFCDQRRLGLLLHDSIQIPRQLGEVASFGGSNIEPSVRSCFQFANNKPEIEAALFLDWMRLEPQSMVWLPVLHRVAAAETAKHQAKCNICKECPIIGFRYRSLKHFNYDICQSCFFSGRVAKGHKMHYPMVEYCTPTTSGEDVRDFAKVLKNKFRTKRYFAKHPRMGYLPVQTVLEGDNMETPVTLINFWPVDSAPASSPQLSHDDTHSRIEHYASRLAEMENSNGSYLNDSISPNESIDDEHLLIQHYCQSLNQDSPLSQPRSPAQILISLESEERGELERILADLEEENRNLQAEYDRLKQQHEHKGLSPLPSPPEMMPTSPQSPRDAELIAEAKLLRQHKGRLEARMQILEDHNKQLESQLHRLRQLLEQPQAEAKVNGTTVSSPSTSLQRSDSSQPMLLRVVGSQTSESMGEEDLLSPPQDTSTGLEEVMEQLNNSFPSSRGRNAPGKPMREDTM
UniProt P35569: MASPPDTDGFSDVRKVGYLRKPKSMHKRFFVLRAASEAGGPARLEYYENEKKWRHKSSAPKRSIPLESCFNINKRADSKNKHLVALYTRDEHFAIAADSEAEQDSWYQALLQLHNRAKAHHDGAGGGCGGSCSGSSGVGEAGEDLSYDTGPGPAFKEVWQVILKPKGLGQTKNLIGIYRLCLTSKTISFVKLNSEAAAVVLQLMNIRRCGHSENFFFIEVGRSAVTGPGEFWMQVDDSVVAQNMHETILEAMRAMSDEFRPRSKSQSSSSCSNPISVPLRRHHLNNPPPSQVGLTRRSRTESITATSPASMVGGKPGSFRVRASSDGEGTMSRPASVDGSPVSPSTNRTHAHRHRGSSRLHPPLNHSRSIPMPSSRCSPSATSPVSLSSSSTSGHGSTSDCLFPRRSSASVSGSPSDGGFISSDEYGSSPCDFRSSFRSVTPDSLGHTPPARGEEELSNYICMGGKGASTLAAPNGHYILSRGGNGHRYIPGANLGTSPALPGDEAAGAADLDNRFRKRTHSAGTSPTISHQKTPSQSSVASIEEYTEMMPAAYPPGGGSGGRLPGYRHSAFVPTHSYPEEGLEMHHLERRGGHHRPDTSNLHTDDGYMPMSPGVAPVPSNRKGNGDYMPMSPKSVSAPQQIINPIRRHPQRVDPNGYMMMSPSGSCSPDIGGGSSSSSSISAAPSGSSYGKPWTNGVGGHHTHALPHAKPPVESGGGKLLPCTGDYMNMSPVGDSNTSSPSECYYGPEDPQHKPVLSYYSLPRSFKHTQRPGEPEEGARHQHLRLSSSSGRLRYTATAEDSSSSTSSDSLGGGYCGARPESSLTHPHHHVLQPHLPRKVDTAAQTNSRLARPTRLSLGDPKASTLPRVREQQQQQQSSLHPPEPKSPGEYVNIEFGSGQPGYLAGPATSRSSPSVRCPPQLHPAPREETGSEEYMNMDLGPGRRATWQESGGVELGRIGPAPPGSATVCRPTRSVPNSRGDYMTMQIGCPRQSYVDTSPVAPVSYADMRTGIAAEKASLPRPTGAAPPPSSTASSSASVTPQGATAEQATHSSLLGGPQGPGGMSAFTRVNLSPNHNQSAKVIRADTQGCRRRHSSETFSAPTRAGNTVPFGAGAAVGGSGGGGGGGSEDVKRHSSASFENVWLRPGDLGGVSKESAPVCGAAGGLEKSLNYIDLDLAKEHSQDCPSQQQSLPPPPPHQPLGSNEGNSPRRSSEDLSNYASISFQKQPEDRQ

T1: 6His-tagged plakoglobin (UniProt P14923)
T1 sequence: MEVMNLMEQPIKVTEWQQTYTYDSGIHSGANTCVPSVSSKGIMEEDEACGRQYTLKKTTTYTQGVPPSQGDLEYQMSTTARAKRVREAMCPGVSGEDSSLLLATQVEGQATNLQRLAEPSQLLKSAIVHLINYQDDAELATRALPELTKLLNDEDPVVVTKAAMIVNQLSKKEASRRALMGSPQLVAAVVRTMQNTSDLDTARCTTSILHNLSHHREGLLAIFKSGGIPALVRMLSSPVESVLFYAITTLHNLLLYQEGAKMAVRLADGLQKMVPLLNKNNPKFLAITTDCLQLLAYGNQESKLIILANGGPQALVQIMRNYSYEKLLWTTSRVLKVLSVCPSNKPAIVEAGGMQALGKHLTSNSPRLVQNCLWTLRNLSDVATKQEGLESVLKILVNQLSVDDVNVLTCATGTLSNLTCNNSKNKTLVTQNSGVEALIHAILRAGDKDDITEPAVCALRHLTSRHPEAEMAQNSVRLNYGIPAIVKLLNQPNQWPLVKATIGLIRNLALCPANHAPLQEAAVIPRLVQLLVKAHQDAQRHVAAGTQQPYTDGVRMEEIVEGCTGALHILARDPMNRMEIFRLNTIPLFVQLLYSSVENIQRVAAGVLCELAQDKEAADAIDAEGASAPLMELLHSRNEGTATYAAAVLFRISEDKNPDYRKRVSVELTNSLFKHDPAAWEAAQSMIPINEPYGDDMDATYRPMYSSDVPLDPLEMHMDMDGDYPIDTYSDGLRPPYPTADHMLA

B1: β-sarcoglycan (protein, UniProt P82349 1-320)
chain: MAAAAAAAAATEQQGSNGPVKKSMREKAVERRNVNKEHNSNFKAGYIPIDEDRLHKTGLRGRKGNLAICVIVLLFILAVINLLITLVIWAVIRIGPNGCDSMEFHESGLLRFKQVSDMGVIHPLYKSTVGGRRNENLVITGNNQPIVFQQGTTKLSVEKNKTSITSDIGMQFFDPRTHNILFSTDYETHEFHLPSGVKSLNVQKASTERITSNATSDLNIKVDGRAIVRGNEGVFIMGKTIEFHMGGDVELKAENSIILNGTVMVSPTRLPSSSSGDQSGSGDWVRYKLCMCADGTLFKVQVTGHNMGCQVSDNPCGNTH
B2: γ-sarcoglycan (protein, UniProt P82348 1-291)
chain: MVREQYTTVTEGTHIERPENQHIYKIGIYGWRKRCLYLFVLLLLAILVVNLALTIWILKVMWFSPIGMGHLHVTADGLRLEGESEFLFPLYAKEIRSRVDSSLLLQSTQNVTVSARNSEGEVTGRVKVGAQMVEVQSQHFQINSEDGKPLFSAEEQDVVVGTGRLRVTGPEGALFEHSVETPLVRADPFQDLRLESPTRSLSMDAPRGVHVKANAGKLEALSQMDIILQSSEGVLVLDAETVGLTKLKQGTQGPAGSSNGFYEICACPDGKLYLSMAGEVTTCEEHSHVCL
B3: α-1-syntrophin (protein, UniProt Q61234 1-503)
chain: MASGRRAPRTGLLELRCGAGSGAGGERWQRVLLSLAEDALTVSPADGEPGPEPEPAQLNGAAEPGAAPPQLPEALLLQRRRVTVRKADAGGLGISIKGGRENKMPILISKIFKGLAADQTEALFVGDAILSVNGEDLSSATHDEAVQALKKTGKEVVLEVKYMKEVSPYFKNSAGGTSVGWDSPPASPLQRQPSSPGPQPRNLSEAKHVSLKMAYVSRRCTPTDPEPRYLEICAADGQDAVFLRAKDEASARSWAGAIQAQIGTFIPWVKDELQALLTATGTAGSQDIKQIGWLTEQLPSGGTAPTLALLTEKELLFYCSLPQSREALSRPTRTAPLIATSSAHRLVHSGPSKGSVPYDAELSFALRTGTRHGVDTHLFSVESPQELAAWTRQLVDGCHRAAEGIQEVSTACTWNGRPCSLSVHIDKGFTLWAAEPGAARAMLLRQPFEKLQMSSDDGTSLLFLDFGGAEGEIQLDLHSCPKTMVFIIHSFLSAKVTRLGLLA
B4: β-dystroglycan (protein, UniProt Q62165 652-893)
chain: SIVVEWTNNTLPLEPCPKEQIIGLSRRIADENGKPRPAFSNALEPDFKALSIAVTGSGSCRHLQFIPVAPPSPGSSAAPATEVPDRDPEKSSEDDVYLHTVIPAVVVAAILLIAGIIAMICYRKKRKGKLTLEDQATFIKKGVPIIFADELDDSKPPPSSSMPLILQEEKAPLPPPEYPNQSMPETTPLNQDTVGEYTPLRDEDPNAPPYQPPPPFTAPMEGKGSRPKNMTPYRSPPPYVPP
modifications: glycosylated form in the plakoglobin-containing fractions (sites not given)
B5: caveolin 3 (protein, UniProt P51637 1-151)
chain: MMTEEHTDLEARIIKDIHCKEIDLVNRDPKNINEDIVKVDFEDVIAEPEGTYSFDGVWKVSFTTFTVSKYWCYRLLSTLLGVPLALLWGFLFACISFCHIWAVVPCIKSYLIEIQCISHIYSLCIRTFCNPLFAALGQVCSNIKVVLRREG

biological target: T1, 6His-tagged plakoglobin; experiment: affinity purification with mass spectrometry

Molecule	binding
catalytic subunit of PI3K, gamma (from UniProt Q9JHG7 1-1102) (enzyme)	binds
catalytic subunit of PI3K, type 3 (from UniProt Q6PF93 1-887) (enzyme)	binds
caveolin-1 (from UniProt P49817 1-178)	binds
dystrophin (from UniProt P11531 1-3678)	binds
insulin receptor substrate 1 (from UniProt P35569 1-1233)	binds
insulin-like growth factor 2 receptor (from UniProt Q07113 36-2483)	binds
insulin-like growth factor binding protein (mouse (endogenous in skeletal muscle))	binds
p85 regulatory subunit of PI3K (mouse (endogenous in skeletal muscle))	binds
vinculin (from UniProt Q64727 1-1066)	binds
β-syntrophin (mouse (endogenous in skeletal muscle))	binds
B1	binds
B2	binds
B3	binds
B4	binds
B5	binds
